Measurements taken from PMC11060674.

Protein sequences, listed by entry. Tags and fused reporters are not part of them. Lines headed by an entry give the natural chain unless they say otherwise; changes in a name come on top.
UniProt F6H3T7: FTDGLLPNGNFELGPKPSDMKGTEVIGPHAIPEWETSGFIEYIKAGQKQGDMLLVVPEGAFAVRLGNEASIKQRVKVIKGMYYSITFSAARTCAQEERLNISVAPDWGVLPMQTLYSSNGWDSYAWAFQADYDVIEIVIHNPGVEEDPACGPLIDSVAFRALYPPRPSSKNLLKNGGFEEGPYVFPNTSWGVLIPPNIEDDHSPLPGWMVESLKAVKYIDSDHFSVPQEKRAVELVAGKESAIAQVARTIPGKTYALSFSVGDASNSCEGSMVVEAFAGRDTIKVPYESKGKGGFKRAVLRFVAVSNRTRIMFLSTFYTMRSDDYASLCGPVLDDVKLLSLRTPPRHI
UniProt E0CQG0: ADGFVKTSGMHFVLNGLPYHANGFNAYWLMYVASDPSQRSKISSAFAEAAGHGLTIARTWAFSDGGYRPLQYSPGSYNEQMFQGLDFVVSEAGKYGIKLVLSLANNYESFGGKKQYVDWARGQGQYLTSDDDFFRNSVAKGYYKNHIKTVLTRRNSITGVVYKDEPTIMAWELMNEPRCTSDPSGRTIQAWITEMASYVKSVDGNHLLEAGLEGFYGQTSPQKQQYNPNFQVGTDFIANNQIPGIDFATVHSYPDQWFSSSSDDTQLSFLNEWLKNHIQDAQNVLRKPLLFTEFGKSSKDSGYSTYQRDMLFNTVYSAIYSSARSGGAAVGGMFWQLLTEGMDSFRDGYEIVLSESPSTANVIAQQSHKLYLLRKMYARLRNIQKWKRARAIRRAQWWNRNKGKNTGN
UniProt D7TFE6: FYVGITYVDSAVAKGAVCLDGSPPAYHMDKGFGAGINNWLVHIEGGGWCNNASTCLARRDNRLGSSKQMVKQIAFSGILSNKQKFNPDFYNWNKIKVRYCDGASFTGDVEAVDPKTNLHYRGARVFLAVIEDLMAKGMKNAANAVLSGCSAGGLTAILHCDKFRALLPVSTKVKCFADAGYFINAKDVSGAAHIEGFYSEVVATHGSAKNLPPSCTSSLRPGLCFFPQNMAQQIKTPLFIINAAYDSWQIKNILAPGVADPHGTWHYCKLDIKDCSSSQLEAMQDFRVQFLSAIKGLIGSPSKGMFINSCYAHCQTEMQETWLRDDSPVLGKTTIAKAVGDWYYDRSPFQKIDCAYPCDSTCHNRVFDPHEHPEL

How the values were obtained:
[1] = biological target: VvDUF642, split-YFP (BiFC) fusion (Vitis vinifera) (UniProt F6H3T7); assay: split reporter; split-YFP (nYFP/cYFP fusions) co-infiltrated by Agrobacterium into N. benthamiana leaf epidermal cells; cYFP empty vector as negative control
[2] = biological target: DUF642-flag (Vitis vinifera) (UniProt F6H3T7); assay: co-IP; total protein of N. benthamiana leaves transiently expressing DUF642-flag, VvPAE-HA and GFP-flag; anti-flag antibody on protein A agarose, 4 °C, 2 h; blots with anti-flag and anti-HA

Row | binding [1] | binding [2] | Substance
1 | no binding | – | VvCDP, split-YFP (BiFC) fusion (from UniProt E0CQG0)
2 | binds | – | VvPAE, split-YFP (BiFC) fusion (from UniProt D7TFE6) (enzyme)
3 | – | binds | VvPAE-HA (from UniProt D7TFE6) (enzyme)

No constants are given. Whether binding was seen depends on the method and setting. In cells and extracts the contact can be indirect. A result given as binding can be weak or reduced; the word gives no strength.
